Assay results from paper doi:10.1101/2021.03.04.433881.

Protein sequences, listed by entry. Tags and fused reporters are not part of them.
UniProt Q8CEL2: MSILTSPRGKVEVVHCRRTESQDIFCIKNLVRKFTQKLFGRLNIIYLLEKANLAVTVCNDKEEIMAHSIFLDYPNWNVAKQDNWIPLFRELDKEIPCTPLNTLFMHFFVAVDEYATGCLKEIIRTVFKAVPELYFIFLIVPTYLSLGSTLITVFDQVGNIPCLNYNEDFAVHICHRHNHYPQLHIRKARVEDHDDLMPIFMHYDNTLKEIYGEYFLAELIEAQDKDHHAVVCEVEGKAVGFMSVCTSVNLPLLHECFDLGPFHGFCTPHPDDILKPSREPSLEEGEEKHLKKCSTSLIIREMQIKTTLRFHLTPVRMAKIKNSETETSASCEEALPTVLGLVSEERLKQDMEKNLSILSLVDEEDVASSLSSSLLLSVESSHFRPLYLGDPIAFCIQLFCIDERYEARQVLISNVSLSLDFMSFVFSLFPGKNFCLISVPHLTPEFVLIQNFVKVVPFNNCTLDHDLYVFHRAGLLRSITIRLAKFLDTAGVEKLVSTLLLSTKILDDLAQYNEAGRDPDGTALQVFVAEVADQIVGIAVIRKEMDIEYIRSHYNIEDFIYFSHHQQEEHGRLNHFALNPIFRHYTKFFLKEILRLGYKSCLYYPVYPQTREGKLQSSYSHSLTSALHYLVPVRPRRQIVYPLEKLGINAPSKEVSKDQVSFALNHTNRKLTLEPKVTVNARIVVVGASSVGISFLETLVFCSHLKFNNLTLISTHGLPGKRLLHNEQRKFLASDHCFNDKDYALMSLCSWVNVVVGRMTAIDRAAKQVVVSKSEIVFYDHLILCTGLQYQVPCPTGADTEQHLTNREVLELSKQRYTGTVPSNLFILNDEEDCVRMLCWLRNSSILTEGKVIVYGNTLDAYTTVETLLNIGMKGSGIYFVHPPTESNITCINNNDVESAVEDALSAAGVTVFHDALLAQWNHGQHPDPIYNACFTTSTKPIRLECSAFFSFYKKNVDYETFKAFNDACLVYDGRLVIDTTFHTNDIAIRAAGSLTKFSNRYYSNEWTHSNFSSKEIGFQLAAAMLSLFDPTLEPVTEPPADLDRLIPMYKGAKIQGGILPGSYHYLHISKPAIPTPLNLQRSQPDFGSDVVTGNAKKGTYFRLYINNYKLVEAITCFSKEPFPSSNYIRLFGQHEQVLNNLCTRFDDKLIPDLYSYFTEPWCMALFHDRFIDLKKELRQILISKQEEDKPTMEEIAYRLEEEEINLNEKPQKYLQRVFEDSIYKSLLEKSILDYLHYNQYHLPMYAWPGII

Molecular target: CFAP61, endogenous in mouse testis (mouse (endogenous in testis)) (UniProt Q8CEL2)
Experiment: affinity purification with mass spectrometry

binding: binds
B1: RSPH9, endogenous in mouse testis (protein, UniProt Q9D9V4 1-276)
chain: MDADSLLLSLELASGSGQGLSPDRRASLLTSLMLVKRDYRFARVLFWGRILGLVADYYIAQGLSEDQLAPRKTLYSLNCTEWSLLPPATEEMAMQISVVSGRFMGDPSHEYEHTELQKVNEGEKVFDEEVVVQIKEETRLVSIIDQIDKAVAIIPRGALFKTPFGVTHVNRTFEGLPLSEVRKLSSYFHFREAIDLKNKTLLEKSDLEPSLDFLDSLEYDIPRGSWSIQMERGNALVVLRSLLWPGLTFYHAPRTKNYGYIYVGTGEKNMDLPFML

No constants are given. Whether binding was seen depends on the method and setting. In cells and extracts the contact can be indirect. A yes stands for co-enrichment or nearness to the bait. Other partners may have been found.
